Assay results published in the supplement of paper PMC12889115.
The list shows a part of the results. These are raw signals, not scaled to a control.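 In the initial screen, polymyxin B was used at a concentration that permeabilizes Salmonella's outer membrane but not its inner membrane. Maximum growth was set by DMSO wells with or without polymyxin B. Since plates varied, data were ranked per plate, and compounds giving the lowest OD600 advanced as hits.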

Test system: Salmonella enterica serovar Typhimurium SL1344
Test: bacterial growth OD600 after 18 h with compound and polymyxin B; higher = more bacterial growth (less inhibition)
Conditions: 50 µM, Mueller-Hinton broth

Structure (SMILES) | bacterial growth OD600 (polymyxin B 1 µg/mL) | bacterial growth OD600 (polymyxin B 0.75 µg/mL)
CN(CC1CCCN(CCc2ccc(Cl)cc2)C1)C(=O)c1ccncc1 (stereo unspecified) | 0.891 | 
CC(=O)NCc1cccnc1Oc1ccc(F)c(F)c1 | 0.944 | 
CN(C)c1ncccc1CNS(=O)(=O)N1CCCCC1 | 0.716 | 
Fc1cccc(F)c1CCC1CCCN(Cc2ncc[nH]2)C1 (stereo unspecified) |  | 0.759
COC(=O)CNC(=O)Cc1c2c(n(CC(C)C)c1C)CC(C)(C)CC2=O | 0.762 | 
CNc1ccc(C(=O)NCCCc2c(C)noc2C)cn1 | 1.11 | 
CN(CCc1cn[nH]c1)C(=O)c1ccc(OC2CCN(Cc3ccccn3)CC2)cc1 | 0.988 | 
O=C(c1cc(COc2ccc(F)c(F)c2)on1)N(CCO)Cc1ccccc1 | 0.814 | 
CC(C)n1cc(CN2CCN(Cc3ccccc3F)C(CCO)C2)cn1 (stereo unspecified) | 1.02 | 
CCOC(=O)C1(Cc2ccccc2C(F)(F)F)CCN(C(=O)C2=CCCC2)CC1 | 0.596 | 
CO[C@H]1[C@H](NC(=O)Cc2ccccc2)c2ccccc2C12CCN(C(=O)C1=CCCCC1)CC2 |  | 0.554
COC(=O)c1ccc(-c2nc(CN3CCCC3c3ccccc3OC)c(C)o2)cc1 (stereo unspecified) | 0.917 | 
CCOc1ccc2nc(N3CCCC3C(=O)NCc3ccc4c(c3)OCO4)nc(C)c2c1 (stereo unspecified) |  | 0.833
Cc1oc(-c2ccc(NC(=O)Cc3ccccc3)cc2)nc1CNC(=O)CCc1nc2ccccc2[nH]1 |  | 0.718
OCCC1CN(Cc2cnn(-c3cccc(Cl)c3)c2)CCN1Cc1ccccc1F (stereo unspecified) | 0.859 | 
CN(Cc1nc2cc(Cl)ccc2[nH]1)Cc1c(C(=O)N2CCCCC2)nc2sccn12 | 0.037 | 
O=C(NCc1ccccc1F)c1ccc(N2CCC(NCCCOc3cccnc3)CC2)cc1 |  | 0.829
Cc1nc(N2CCCC2C(=O)NC2Cc3ccccc3C2)nc2cc(S(C)(=O)=O)ccc12 (stereo unspecified) |  | 0.731
CCCCc1nc(CN(C)CC2CCN(Cc3ccc(C)o3)CC2)c[nH]1 | 0.975 | 
CC1(C)Cc2nc(N3CCOCC3)ncc2C(NC(=O)C2CC2)C1 (stereo unspecified) |  | 0.84
C=C(C)CNCC1(O)CCCN(Cc2ccccc2F)C1=O (stereo unspecified) | 0.96 | 

A draw from above in order of molar mass, high to low.
Structure (SMILES) | bacterial growth OD600 (polymyxin B 1 µg/mL) | bacterial growth OD600 (polymyxin B 0.75 µg/mL)
COC(=O)c1ccc(-c2nc(CN3CCCC3c3ccccc3OC)c(C)o2)cc1 (stereo unspecified) | 0.917 | 
CCCCc1nc(CN(C)CC2CCN(Cc3ccc(C)o3)CC2)c[nH]1 | 0.975 | 
CC1(C)Cc2nc(N3CCOCC3)ncc2C(NC(=O)C2CC2)C1 (stereo unspecified) |  | 0.84
CC(=O)NCc1cccnc1Oc1ccc(F)c(F)c1 | 0.944 | 
